Some of these results come from one statement about several compounds together. For at least one compound, name, drawing or mass did not settle the structure.
Tested on: fibroblasts from a chronic TSD patient
Experiment: Cell lysis / cell number in chronic TSD fibroblasts at high concentrations
Settings: five days

CC(=O)NC1CN2CCC(O)C2C(O)C1O (stereo not shown) [ACAS, 6-acetamido-6-deoxy-castanospermine]
concentration giving a decrease in hexosaminidase A activity associated with a decrease in the number of cells: > 200 µM
